In the supplement of paper PMC3334620:
The full ranking holds about 33,000 sequences; the median of “E-score (-0.5 to 0.5)” is about -0.016, and the highest 2% start at about 0.3. The list shows a part of the results.

Target: T1, Yer184c (UniProt P39961)
T1 sequence: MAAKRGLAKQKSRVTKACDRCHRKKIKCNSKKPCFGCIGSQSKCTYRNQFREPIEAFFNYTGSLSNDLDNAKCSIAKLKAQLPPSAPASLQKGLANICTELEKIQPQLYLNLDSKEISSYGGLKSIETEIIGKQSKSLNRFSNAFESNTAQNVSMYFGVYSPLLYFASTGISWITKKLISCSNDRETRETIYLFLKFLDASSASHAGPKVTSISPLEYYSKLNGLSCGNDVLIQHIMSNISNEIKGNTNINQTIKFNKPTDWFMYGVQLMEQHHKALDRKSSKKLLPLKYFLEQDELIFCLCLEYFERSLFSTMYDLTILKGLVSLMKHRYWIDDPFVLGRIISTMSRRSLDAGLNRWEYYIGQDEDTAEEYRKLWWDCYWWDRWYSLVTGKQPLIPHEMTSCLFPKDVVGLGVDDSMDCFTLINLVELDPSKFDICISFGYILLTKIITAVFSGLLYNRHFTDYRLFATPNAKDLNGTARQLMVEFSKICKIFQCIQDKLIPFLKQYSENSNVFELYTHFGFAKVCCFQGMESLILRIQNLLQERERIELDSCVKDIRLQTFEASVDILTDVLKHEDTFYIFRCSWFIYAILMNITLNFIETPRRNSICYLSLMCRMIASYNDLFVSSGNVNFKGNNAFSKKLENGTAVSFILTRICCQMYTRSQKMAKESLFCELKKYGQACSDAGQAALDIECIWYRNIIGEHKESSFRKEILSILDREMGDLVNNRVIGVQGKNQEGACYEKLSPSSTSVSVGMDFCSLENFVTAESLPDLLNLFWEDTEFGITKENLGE
Assay: PBM E-score (8-mer binding enrichment) (E-score (-0.5 to 0.5)); higher = stronger / more preferred TF binding
Details: protein concentration: 100 nM; construct: GST-full length
In short: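 Detection of bound protein used fluorescent anti-GST, with scans normalised by masliner. The proteins were GST-tagged yeast transcription factors applied at about 100-200 nM to universal all-10-mer Agilent arrays made double-stranded by primer extension. Each ungapped eight-base word, pooled with its reverse complement, was scored with an E-score from the Universal PBM Analysis Suite.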

Point of comparison: AATCCGAC, “PBM E-score” value 0.182. Against it:
- CTAACCGA — higher, 0.206
- CATTGTTA — lower, 0.0974
- CCTTCGCG — lower, -0.0224
- CGCATGGA — lower, -0.166
- CATTATGG — lower, -0.215
- ATCTTGTC — lower, 0.0338
- ATACGGTC — lower, -0.0326
- ATTGCGCA — lower, -0.0497
- ATTGGTTC — higher, 0.197
- GGACTCGA — lower, -0.205
- TACCACGA — lower, 0.0393
- CGAAGCTC — lower, 0.0346
- CAAAACCG — lower, 0.116
- GATCGAGA — lower, 0.0688
- AGACAGAG — lower, -0.0872
- ATGCAGCC — lower, 0.131
- CGGAATGA — higher, 0.233
- AAGCGAGG — lower, -0.0843
- CGACACAC — lower, 0.0942
- AGGGAAAT — lower, -0.166
- CGGCAACC — higher, 0.272
- ACTACTTC — lower, 0.0106
- CAGTCTAC — lower, -0.179
- GATATATA — higher, 0.349
- CGCTATGC — lower, -0.174
- TGCTCTAA — lower, -0.0827
- AGGCGCAG — lower, -0.296
- GGCTTCTA — lower, -0.0763
- ACACCACC — lower, -0.207
- GCCATTCC — lower, 0.00305
- ATTCTGTG — lower, 0.165
- GACCGCTA — lower, 0.0247
- TAACATAA — lower, 0.174
- CCTTCATC — lower, -0.106
- GGTATAAA — lower, 0.16
- GAATGCTA — lower, -0.0261
- GGTACCTA — lower, -0.172
- CGATTAGA — lower, 0.069
- CCCACAGA — lower, -0.227
- GTGGTGGA — lower, -0.0431
- CGGATAGA — higher, 0.338
- ATCAGATA — lower, -0.0582
- AGACTAGG — lower, -0.164
- ATCTTAGG — lower, -0.148
- AACCTCGT — lower, 0.00542
- CAAGCGTG — lower, -0.139
- TCTATACA — lower, -0.0576
- GACTAAAC — lower, -0.117
- CGACTGAA — lower, -0.0482
- CTGTACTC — lower, -0.18
- ACCCCCCA — lower, -0.319
- CGCTCCGA — lower, 0.111
- ACAATGGA — higher, 0.226
- ACGCTTCC — lower, 0.0165
- GAAAGATA — lower, 0.00057
- GGTGGCCA — lower, -0.217
- CGTACTAA — lower, 0.0418
- AGTGGGCG — lower, 0.0139
- ACGGATAC — higher, 0.266
- CACCAGCC — lower, -0.119
- CTTTGACA — lower, 0.128
- GGGCCATA — lower, 0.115
- CTTCGCAA — lower, -0.0597
- TATAGCGA — lower, -0.107
- AAACATGA — lower, 0.146
- TCTCTTAA — lower, 0.126
- ACCGGTAG — lower, 0.0373
- GATGGGTA — lower, -0.064
- AAAGTGGC — lower, -0.191
- ATCAGGTC — lower, -0.114
- GCTCATAA — lower, 0.0613
- AATAATCG — lower, 0.0241
- AGTGTCCC — lower, 0.036
- CCGTCCCA — lower, -0.129
- ATGATAAT — lower, 0.129
- ATGCTCGA — lower, -0.0483
- GGCCTGGA — lower, -0.213
- CACAAGTC — lower, -0.186
- AGCTTTAC — lower, -0.0634
- AGGAAGAA — lower, -0.158
- GAAAGAAC — lower, 0.138
- ACGGGGAC — lower, -0.14
- CGTTGACA — lower, -0.0766
- GCCCAGCA — lower, 0.0142
- AGTGAGAG — lower, -0.209
- CAGAGACG — lower, 0.0363
- ACTACCAA — lower, -0.00394
- AGATAACC — lower, -0.06
- ACCGCGGA — higher, 0.314
- ATCTTCCA — lower, -0.114
- CGGTTGTC — higher, 0.208
- GCGACTAA — lower, 0.0914
- ATATCTAC — lower, 0.102
- GCCTGTAA — lower, -0.0307
- ATTACCTA — lower, 0.11
- AGCTCGAC — lower, 0.0731
- CCCAGGCC — lower, -0.0855
- AGTTATAG — lower, 0.0168
- CTTGGCAC — lower, -0.0814
- GCCAGAAC — lower, -0.044
- ACGTTTGA — lower, 0.0158
- CGGGTAGC — lower, 0.122
- ATATAGCC — lower, 0.0726
- CTTGGCCA — lower, -0.109
- AGTTTTAC — lower, 0.0637
- CGCGTTGC — lower, 0.16
- CTTGACCA — lower, -0.139
- ATGGCACC — lower, -0.199
- CGGGTGCC — lower, 0.0953
- TGTTTGAA — lower, 0.177
- AGAATTCG — lower, 0.109
- GGGGGTCA — lower, -0.31
- ACGTGGTG — lower, -0.255
- GAACCAGA — lower, -0.0507
- GGCCCCGA — lower, -0.024
- CAAGTTCC — lower, 0.0076
- AGATAGAG — lower, 0.0567
- CAGTTGAA — lower, -0.104
- ACGCATCA — lower, 0.0721
- ACTGTAAC — lower, -0.0895
- AAGTAGCG — lower, -0.0985
- CGGTCAAG — lower, 0.13
- AAACACTA — lower, 0.148
- GTATACCA — lower, -0.0258
- AAAAGGGA — lower, -0.127
- CGGCTAAA — higher, 0.327
- GACGCGTC — lower, -0.178
- AAAAAGAT — lower, 0.164
- AGGAAGTA — lower, 0.0741
- CTCCCCGC — lower, 0.0142
- AACATGCG — lower, -0.0405
- CCTAACGA — lower, -0.00444
- GTTCCGTA — higher, 0.276
- ACTAGAAG — lower, 0.0145
- AGGATGCG — lower, -0.123
- CGTAGAGA — lower, -0.0444
- CTCGCCGC — lower, -0.0197
- AACCCGAG — lower, 0.122
- CGATATAC — lower, -0.0299
- GGTCCCTA — lower, -0.184
- ACCGGAGA — higher, 0.33
- CTGTCGTA — lower, -0.0891
- GCCCTCAA — lower, -0.232
- CCGAAGAC — higher, 0.202
- CGCGTTGA — lower, -0.00366
- CTCTAGCC — lower, -0.0843
- ATCCAGGC — lower, -0.188
- GGAAGCCC — lower, 0.0509
- ACCTTTAT — lower, -0.139
- CTGGGTTC — lower, 0.0288
- AGGAGACA — lower, 0.0183
- GTAAGAGA — lower, -0.0957
- GCGTACCC — lower, -0.219
- CAATTCGC — higher, 0.281
- GCATCGGC — lower, 0.176
- GGCGGAGA — higher, 0.195
- GTCTAAGA — lower, 0.0677
- GTAGGTTA — lower, -0.00416
- GTAATGAC — lower, -0.0867
- GTTTTACA — lower, -0.015
- CTCTATTC — lower, -0.0103
- ATCCACGC — lower, -0.275
- ACGTGCTA — lower, -0.0967
- CACTGCGA — lower, -0.0568
- CTTCTCAA — lower, -0.0199
- AGTAATGG — lower, 0.0286
- ATGGTTGG — lower, -0.0798
- AGGACCCG — lower, 0.0965
- ATTTCGTG — lower, 0.12
- GAACCTTA — lower, 0.18
- CTTCTACA — lower, -0.00324
